Source: the supplement of paper PMC10849652
Some of the results follow.

The chains behind the UniProt entries cited, without tags or fusion partners. Where a name states a change or a piece, a line headed by the entry shows the natural chain unless it says otherwise.
UniProt Q9NSE4: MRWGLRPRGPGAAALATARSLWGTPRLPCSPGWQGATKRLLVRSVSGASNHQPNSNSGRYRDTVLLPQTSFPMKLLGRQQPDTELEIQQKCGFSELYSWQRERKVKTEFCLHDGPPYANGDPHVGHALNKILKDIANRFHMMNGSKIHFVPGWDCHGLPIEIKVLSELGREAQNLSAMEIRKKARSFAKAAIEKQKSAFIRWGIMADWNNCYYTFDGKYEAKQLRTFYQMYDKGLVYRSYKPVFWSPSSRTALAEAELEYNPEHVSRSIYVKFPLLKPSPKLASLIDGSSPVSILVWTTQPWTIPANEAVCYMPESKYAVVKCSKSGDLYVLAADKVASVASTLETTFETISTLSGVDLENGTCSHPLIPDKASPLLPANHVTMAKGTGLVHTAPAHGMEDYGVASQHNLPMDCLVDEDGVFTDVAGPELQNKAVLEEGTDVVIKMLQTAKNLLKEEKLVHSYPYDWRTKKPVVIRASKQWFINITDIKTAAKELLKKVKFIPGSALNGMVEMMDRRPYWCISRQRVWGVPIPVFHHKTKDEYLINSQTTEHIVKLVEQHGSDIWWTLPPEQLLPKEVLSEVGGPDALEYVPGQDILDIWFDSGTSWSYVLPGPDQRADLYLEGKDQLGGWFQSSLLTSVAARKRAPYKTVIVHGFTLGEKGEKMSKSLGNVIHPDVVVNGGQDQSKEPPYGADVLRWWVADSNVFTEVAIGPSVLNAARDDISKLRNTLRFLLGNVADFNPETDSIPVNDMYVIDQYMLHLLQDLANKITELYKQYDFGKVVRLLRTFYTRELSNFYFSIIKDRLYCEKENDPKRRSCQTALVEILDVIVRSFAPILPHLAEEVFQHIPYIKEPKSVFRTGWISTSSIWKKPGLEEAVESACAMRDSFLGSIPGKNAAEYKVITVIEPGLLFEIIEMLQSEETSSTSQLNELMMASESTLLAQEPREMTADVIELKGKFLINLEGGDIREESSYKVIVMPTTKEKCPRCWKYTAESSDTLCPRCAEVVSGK
UniProt Q9H0C8: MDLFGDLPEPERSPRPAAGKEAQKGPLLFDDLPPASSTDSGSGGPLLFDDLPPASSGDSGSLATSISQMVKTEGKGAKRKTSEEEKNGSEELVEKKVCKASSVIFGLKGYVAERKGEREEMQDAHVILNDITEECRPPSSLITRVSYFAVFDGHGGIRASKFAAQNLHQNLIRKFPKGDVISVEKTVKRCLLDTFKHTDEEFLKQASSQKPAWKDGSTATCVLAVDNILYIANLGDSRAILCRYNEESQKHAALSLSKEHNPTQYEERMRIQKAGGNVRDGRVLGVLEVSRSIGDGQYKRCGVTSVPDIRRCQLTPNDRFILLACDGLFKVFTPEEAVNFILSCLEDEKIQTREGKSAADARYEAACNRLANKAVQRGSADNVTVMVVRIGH
UniProt P20839, whole entry, looked up: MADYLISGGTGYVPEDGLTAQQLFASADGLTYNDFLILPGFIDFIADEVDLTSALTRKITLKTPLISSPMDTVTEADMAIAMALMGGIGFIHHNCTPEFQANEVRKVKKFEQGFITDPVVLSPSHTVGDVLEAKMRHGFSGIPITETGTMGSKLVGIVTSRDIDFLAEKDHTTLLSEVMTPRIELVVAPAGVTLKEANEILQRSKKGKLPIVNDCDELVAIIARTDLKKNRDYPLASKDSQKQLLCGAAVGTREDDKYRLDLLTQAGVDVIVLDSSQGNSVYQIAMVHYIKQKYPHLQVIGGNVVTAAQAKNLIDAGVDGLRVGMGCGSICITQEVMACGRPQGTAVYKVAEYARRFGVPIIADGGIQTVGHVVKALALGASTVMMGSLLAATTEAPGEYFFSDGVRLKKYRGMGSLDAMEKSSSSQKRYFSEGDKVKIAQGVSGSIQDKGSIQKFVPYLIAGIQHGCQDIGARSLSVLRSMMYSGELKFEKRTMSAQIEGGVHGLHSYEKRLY
UniProt Q9NX62: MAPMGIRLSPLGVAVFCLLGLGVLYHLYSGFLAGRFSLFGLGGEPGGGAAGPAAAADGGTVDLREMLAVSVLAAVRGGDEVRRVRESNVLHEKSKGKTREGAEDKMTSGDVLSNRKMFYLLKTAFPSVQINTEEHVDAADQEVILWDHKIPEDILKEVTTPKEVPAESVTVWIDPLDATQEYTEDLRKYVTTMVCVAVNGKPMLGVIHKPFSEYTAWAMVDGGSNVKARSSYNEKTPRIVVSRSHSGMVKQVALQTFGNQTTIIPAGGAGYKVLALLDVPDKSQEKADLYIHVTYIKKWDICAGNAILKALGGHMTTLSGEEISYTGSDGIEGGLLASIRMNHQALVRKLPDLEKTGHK
UniProt P15260: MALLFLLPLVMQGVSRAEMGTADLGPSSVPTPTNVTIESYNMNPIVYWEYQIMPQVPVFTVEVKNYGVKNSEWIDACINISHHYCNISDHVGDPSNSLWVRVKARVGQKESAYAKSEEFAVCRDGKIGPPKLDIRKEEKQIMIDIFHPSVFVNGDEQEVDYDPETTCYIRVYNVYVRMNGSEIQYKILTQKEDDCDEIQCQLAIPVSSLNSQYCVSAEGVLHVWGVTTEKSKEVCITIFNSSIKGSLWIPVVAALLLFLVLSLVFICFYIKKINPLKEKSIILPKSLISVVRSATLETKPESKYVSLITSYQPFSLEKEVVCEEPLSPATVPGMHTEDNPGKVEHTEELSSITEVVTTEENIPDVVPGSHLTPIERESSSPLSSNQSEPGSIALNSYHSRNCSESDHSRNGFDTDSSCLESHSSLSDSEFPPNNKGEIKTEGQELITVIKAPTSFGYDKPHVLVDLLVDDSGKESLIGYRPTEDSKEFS
UniProt Q9BUP3: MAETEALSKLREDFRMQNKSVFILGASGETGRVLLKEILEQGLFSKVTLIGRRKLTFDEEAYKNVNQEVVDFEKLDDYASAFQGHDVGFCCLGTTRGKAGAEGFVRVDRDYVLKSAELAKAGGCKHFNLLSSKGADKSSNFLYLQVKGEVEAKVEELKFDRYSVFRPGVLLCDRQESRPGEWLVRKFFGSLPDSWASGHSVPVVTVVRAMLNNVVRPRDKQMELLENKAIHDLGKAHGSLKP
UniProt Q9NZL4: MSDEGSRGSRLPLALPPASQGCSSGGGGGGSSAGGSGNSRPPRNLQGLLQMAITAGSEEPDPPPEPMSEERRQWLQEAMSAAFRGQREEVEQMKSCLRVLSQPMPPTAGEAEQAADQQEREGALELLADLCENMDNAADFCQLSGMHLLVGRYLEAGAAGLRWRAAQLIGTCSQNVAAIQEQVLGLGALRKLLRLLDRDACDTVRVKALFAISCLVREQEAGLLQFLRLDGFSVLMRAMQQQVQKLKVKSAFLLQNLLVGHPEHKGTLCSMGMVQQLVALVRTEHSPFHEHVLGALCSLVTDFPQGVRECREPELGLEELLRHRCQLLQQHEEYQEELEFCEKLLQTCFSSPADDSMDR
UniProt O60921: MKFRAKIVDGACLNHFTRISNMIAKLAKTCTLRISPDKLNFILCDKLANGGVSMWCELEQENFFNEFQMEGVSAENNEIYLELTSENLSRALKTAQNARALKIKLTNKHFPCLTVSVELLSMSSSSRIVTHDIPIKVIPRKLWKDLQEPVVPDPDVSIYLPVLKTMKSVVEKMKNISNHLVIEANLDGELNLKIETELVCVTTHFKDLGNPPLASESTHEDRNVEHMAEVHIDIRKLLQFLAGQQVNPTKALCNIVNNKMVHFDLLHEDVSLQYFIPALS
UniProt O00425, whole entry, looked up: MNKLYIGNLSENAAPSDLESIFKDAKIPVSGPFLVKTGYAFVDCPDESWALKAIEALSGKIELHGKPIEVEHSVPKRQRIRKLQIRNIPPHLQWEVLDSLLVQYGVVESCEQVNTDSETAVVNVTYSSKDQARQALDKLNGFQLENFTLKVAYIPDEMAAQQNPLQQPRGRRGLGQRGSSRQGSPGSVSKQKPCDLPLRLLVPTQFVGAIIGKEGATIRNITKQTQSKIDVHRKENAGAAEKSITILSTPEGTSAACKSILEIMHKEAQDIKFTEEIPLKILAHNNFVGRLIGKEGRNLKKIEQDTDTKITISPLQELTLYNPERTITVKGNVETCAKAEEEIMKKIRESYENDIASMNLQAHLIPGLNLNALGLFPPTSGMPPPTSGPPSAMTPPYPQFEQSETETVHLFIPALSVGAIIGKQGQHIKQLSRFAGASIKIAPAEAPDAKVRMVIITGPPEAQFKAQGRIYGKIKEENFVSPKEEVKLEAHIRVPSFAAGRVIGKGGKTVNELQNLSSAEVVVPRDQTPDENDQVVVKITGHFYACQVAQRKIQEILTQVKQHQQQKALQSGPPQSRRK
UniProt Q969P0: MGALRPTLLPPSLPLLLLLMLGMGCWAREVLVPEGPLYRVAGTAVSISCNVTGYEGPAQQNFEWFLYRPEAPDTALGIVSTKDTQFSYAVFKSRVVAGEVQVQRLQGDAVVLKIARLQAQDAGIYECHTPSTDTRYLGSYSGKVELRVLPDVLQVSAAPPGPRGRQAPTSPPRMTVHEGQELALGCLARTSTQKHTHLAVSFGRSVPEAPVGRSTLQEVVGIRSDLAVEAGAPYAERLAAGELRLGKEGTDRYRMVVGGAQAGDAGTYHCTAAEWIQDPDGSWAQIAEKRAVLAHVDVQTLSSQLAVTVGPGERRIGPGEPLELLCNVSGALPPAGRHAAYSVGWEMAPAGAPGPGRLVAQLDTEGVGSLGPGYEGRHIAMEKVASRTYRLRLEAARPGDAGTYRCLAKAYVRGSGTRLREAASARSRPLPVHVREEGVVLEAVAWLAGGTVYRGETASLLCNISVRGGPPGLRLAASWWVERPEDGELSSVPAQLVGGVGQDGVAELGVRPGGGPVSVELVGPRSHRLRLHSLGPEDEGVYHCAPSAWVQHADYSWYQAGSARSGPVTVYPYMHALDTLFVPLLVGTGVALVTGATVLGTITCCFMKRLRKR
UniProt Q96LB3: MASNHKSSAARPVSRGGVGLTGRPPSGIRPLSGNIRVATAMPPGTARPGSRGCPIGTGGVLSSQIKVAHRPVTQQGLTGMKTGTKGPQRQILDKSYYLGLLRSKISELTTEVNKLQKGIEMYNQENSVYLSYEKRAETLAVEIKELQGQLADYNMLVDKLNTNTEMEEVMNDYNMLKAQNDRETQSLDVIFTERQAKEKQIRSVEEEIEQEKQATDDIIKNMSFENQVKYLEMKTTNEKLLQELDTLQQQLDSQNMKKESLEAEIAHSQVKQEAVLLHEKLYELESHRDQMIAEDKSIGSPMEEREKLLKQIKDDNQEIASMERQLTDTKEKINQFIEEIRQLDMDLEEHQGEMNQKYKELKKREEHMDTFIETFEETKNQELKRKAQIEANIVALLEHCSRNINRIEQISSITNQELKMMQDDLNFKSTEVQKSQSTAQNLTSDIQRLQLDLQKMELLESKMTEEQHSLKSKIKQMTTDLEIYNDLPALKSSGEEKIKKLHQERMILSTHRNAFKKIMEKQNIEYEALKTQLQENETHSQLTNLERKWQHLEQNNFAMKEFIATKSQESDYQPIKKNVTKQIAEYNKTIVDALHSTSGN
UniProt P11142, whole entry, looked up: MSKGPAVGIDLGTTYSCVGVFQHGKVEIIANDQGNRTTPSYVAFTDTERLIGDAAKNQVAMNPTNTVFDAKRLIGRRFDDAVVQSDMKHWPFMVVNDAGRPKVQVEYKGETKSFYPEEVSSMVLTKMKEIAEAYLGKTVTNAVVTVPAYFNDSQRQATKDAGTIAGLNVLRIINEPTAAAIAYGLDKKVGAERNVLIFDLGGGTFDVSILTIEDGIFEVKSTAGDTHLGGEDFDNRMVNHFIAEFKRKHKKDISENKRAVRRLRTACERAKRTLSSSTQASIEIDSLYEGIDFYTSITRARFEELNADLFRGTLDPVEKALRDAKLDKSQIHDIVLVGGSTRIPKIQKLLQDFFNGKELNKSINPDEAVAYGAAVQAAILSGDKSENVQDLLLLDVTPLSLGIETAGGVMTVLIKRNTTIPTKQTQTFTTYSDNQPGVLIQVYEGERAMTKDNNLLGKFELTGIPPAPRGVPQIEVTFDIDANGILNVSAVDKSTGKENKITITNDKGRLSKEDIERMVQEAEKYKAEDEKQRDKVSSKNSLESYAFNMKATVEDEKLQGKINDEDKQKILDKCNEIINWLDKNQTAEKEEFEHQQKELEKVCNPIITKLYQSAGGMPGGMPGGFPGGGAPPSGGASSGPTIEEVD
UniProt P29218: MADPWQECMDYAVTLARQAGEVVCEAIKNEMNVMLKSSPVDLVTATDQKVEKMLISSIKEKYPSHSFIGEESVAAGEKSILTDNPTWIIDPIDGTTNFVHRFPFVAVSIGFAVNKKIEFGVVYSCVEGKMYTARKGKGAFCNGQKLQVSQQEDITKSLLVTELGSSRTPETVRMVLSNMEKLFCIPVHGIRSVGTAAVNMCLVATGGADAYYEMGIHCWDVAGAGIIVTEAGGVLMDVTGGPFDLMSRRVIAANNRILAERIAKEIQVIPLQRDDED
UniProt Q96T52: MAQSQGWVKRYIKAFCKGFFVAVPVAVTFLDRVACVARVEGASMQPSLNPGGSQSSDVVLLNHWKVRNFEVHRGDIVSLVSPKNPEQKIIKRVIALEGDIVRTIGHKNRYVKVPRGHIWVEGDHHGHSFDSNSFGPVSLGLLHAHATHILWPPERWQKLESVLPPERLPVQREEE

Experiments:
Assay in all cases: log2 fold change, soluble protein after heating vs DMSO (PISA); higher = thermal stabilisation; K562 lysate, 10 uM; active = over 0.2 and 3.5 SD of the protein, either way, in both replicates (recomputed)
erlotinib = compound: C#Cc1cccc(Nc2ncnc3cc(OCCOC)c(OCCOC)cc23)c1 [erlotinib]
In short: (§1)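 Soluble protein was defined as the supernatant remaining after 21,000xg for 90 min, following pooling of heated aliquots and adjustment to 0.5% NP-40 at 4°C. Before that, crude K562 extract at 1 mg/mL protein in PBS pH 7.4 with 1 mM MgCl2 was treated with 10 μM compound for 30 min and heated for 3 min across 48°C-58°C. Quantification used TMTpro 16plex LC-MS/MS with channel sums equalised, and values are log-two fold changes in thermal stability relative to solvent controls from duplicates.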

[1] = compound: C/C(=N\NC(=O)C1=CC(=CC=C1)S(=O)(=O)N2CCOCC2)/C3=C(C=CC(=C3)Cl)O
In short: as §1

[2] = compound: C1=CC(=CC=C1C2=NC3=C(N2)C=C(C=C3)C(=O)N)OC4=CC=C(C=C4)Cl
In short: as §1

[3] = compound: C1=CC2=C(C=CC(=C2)/C=C\3/C(=O)NC(=NCC4=CC=CS4)S3)N=C1
In short: as §1

[4] = compound: C1=CC2=NC=CN=C2C=C1/C=C/3\C(=O)NC(=O)S3
In short: as §1

[5] = compound: C1=CC=C(C=C1)C2=NC(=C(N2)C3=CC=NC=C3)C4=CC(=C(C=C4)Cl)O
In short: as §1

[6] = compound: C1=CC=C2C(=C1)C3=NNC4=CC=CC(=C43)C2=O
In short: as §1

[7] = compound: C1CCN(C1)C(=O)NC2=CC=CC(=C2)NC3=NC=C(C(=N3)NCCC4=CN=CN4)Br
In short: as §1

[8] = compound: C1CN(CCC1(CC2=CC=C(C=C2)Cl)N)C3=NC=NC4=C3C=CN4
In short: as §1

IRAK-1-4 Inhibitor I = compound: C1COCCN1CCN2C3=CC=CC=C3N=C2NC(=O)C4=CC(=CC=C4)[N+](=O)[O-] [IRAK-1-4 Inhibitor I]
In short: as §1

ibrutinib = compound: C=CC(=O)N1CCC[C@@H](n2nc(-c3ccc(Oc4ccccc4)cc3)c3c(N)ncnc32)C1 [ibrutinib]
In short: as §1

[9] = compound: CC(=O)c1cnc2ccc(-c3cc(Cl)c(O)c(Cl)c3)nc2c1N[C@H]1CC[C@H](CN(C)C)CC1
In short: as §1

ralimetinib = compound: CC(C)(C)Cn1c(N)nc2ccc(-c3[nH]c(C(C)(C)C)nc3-c3ccc(F)cc3)nc21 [ralimetinib]
In short: as §1

[10] = compound: CC(C)(O)CC(=O)NCCn1ccc2ncnc(Nc3ccc(Oc4cccc(C(F)(F)F)c4)c(Cl)c3)c21
In short: as §1

[11] = compound: CC(C)C1=C2N=C(C=C(N2N=C1)NCC3=CC=CC=C3)NCCCCCCN
In short: as §1

[12] = compound: CC1=C(C(CC(=O)N1)C2=CC=C(C=C2)C(F)(F)F)C(=O)NC3=C(C=C4C(=C3)C=NN4)F
In short: as §1

[13] = compound: CC1=C(C2=C(C=C1)C(=O)C3=CC=CC=C3N2CCCN)C
In short: as §1

[14] = compound: CC1=C(C=C(C=C1)NC(=O)C2=CC(=CC=C2)C(C)(C)C#N)NC3=CC4=C(C=C3)N=CN(C4=O)C
In short: as §1

[15] = compound: CC1=C(C=C(C=C1)NC(=O)C2=CC(=CC=C2)N(C)C)NC(=O)C3=CC=C(C=C3)O
In short: as §1

[16] = compound: CC1=CC=C(C=C1)SC2=C3C=C(SC3=CN=C2)C(=O)N
In short: as §1

Measured: log2 fold change

ICAM2 (UniProt P13598)
inactive: erlotinib 0.004 | [1] -0.022 | [2] 0.023 | [3] -0.029 | [4] -0.01 | [5] -0.011 | [6] 0.021 | [7] 0.032 | [8] 0.005 | IRAK-1-4 Inhibitor I 0.061 | ibrutinib 0.058 | [9] 0.043 | ralimetinib 0.001 | [10] -0.019 | [11] -0.016 | [12] 0.005 | [13] 0.012 | [14] 0.023 | [15] -0.028 | [16] -0.028

IARS2 (UniProt Q9NSE4)
inactive: erlotinib -0.025 | [1] 0.014 | [2] 0.026 | [3] 0.005 | [4] 0.013 | [5] -0.007 | [6] -0.043 | [7] -0.01 | [8] 0.054 | IRAK-1-4 Inhibitor I 0.016 | ibrutinib -0.006 | [9] -0.008 | ralimetinib -0.005 | [10] 0.007 | [11] -0.025 | [12] -0.031 | [13] 0.016 | [14] 0.005 | [15] 0.013 | [16] -0.031

ILKAP (UniProt Q9H0C8)
inactive: erlotinib -0.042 | [1] -0.01 | [2] -0.007 | [3] 0.027 | [4] -0.021 | [5] -0.005 | [6] 0.015 | [7] -0.022 | [8] -0.043 | IRAK-1-4 Inhibitor I 0.004 | ibrutinib -0.018 | [9] 0 | ralimetinib -0.007 | [10] 0.031 | [11] -0.032 | [12] 0.007 | [13] 0.037 | [14] -0.016 | [15] 0 | [16] -0.002

IMPDH1 isoform 6 (UniProt P20839)
inactive: erlotinib 0.018 | [1] 0.036 | [2] -0.031 | [3] 0.009 | [4] -0.001 | [5] -0.001 | [6] 0.017 | [7] 0.028 | [8] 0.032 | IRAK-1-4 Inhibitor I 0.003 | ibrutinib -0.007 | [9] 0.009 | ralimetinib 0.034 | [10] -0.007 | [11] 0.01 | [12] -0.039 | [13] 0.033 | [14] 0.014 | [15] -0.005 | [16] -0.004

IMPAD1 (UniProt Q9NX62)
inactive: erlotinib -0.032 | [1] 0.002 | [2] 0.028 | [3] 0.017 | [4] 0.025 | [5] -0.007 | [6] -0.027 | [7] 0.019 | [8] -0.006 | IRAK-1-4 Inhibitor I -0.023 | ibrutinib 0.023 | [9] -0.025 | ralimetinib 0.024 | [10] -0.01 | [11] 0.012 | [12] -0.021 | [13] -0.018 | [14] 0.017 | [15] 0.018 | [16] 0.008

IFNGR1 (UniProt P15260)
inactive: erlotinib 0.06 | [1] -0.064 | [2] 0.07 | [3] -0.134 | [4] -0.127 | [5] -0.021 | [6] -0.264 | [7] -0.075 | [8] 0.073 | IRAK-1-4 Inhibitor I 0.107 | ibrutinib -0.033 | [9] -0.12 | ralimetinib -0.018 | [10] -0.256 | [11] -0.014 | [12] 0.162 | [13] -0.077 | [14] 0.017 | [15] 0.073 | [16] -0.213

HTATIP2 isoform 3 (UniProt Q9BUP3)
inactive: erlotinib 0.011 | [1] -0.017 | [2] -0.003 | [3] 0.031 | [4] 0.004 | [5] -0.009 | [6] -0.04 | [7] -0.051 | [8] -0.051 | IRAK-1-4 Inhibitor I -0.009 | ibrutinib -0.038 | [9] -0.004 | ralimetinib -0.008 | [10] 0.006 | [11] 0.001 | [12] 0.046 | [13] 0.026 | [14] -0.026 | [15] 0.034 | [16] -0.003

HSPBP1 (UniProt Q9NZL4)
inactive: erlotinib 0.022 | [1] 0.052 | [2] -0.003 | [3] -0.025 | [4] -0.017 | [5] 0.003 | [6] -0.018 | [7] -0.036 | [8] 0.05 | IRAK-1-4 Inhibitor I -0.004 | ibrutinib 0.027 | [9] 0.003 | ralimetinib 0.006 | [10] -0.04 | [11] -0.006 | [12] -0.003 | [13] -0.042 | [14] -0.004 | [15] 0.008 | [16] -0.001

HUS1 (UniProt O60921)
inactive: erlotinib 0.023 | [1] 0.005 | [2] 0.04 | [3] 0.006 | [4] 0.024 | [5] -0.027 | [6] -0.018 | [7] 0.006 | [8] -0.016 | IRAK-1-4 Inhibitor I 0.011 | ibrutinib -0.067 | [9] 0.011 | ralimetinib 0.081 | [10] -0.125 | [11] -0.035 | [12] 0 | [13] -0.014 | [14] 0.001 | [15] -0.008 | [16] 0.026

IGF2BP3 (UniProt O00425)
inactive: erlotinib 0.04 | [1] 0.023 | [2] -0.007 | [3] 0.003 | [4] 0.005 | [5] 0.024 | [6] -0.067 | [7] 0.026 | [8] 0 | IRAK-1-4 Inhibitor I -0.018 | ibrutinib 0.006 | [9] -0.019 | ralimetinib -0.012 | [10] 0.011 | [11] 0.024 | [12] -0.009 | [13] 0.011 | [14] -0.047 | [15] 0.007 | [16] 0.021

IGSF8 (UniProt Q969P0)
inactive: erlotinib -0.008 | [1] -0.023 | [2] 0.043 | [3] 0.011 | [4] -0.042 | [5] -0.003 | [6] 0.004 | [7] -0.018 | [8] -0.046 | IRAK-1-4 Inhibitor I 0.107 | ibrutinib -0.013 | [9] -0.003 | ralimetinib -0.045 | [10] -0.102 | [11] -0.077 | [12] -0.137 | [13] -0.02 | [14] 0.053 | [15] 0.043 | [16] -0.02

IFT74 (UniProt Q96LB3)
inactive: erlotinib 0.038 | [1] 0.026 | [2] 0.107 | [3] -0.067 | [4] -0.037 | [5] -0.014 | [6] -0.032 | [7] -0.013 | [8] 0.027 | IRAK-1-4 Inhibitor I 0.086 | ibrutinib 0.005 | [9] -0.028 | ralimetinib 0.052 | [10] -0.112 | [11] 0.056 | [12] -0.045 | [13] -0.035 | [14] 0.06 | [15] 0.036 | [16] -0.072

HSPA8 (UniProt P11142)
inactive: erlotinib -0.022 | [1] 0.003 | [2] 0.008 | [3] 0.002 | [4] -0.028 | [5] -0.004 | [6] 0.038 | [7] 0.016 | [8] -0.009 | IRAK-1-4 Inhibitor I -0.008 | ibrutinib -0.02 | [9] -0.002 | ralimetinib -0.015 | [10] -0.003 | [11] 0.001 | [12] -0.022 | [13] 0.005 | [14] -0.013 | [15] -0.002 | [16] 0.009

IMPA1 isoform 3 (UniProt P29218)
inactive: erlotinib -0.025 | [1] 0.017 | [2] 0.01 | [3] -0.01 | [4] 0.012 | [5] 0.019 | [6] 0.012 | [7] 0.006 | [8] 0.011 | IRAK-1-4 Inhibitor I 0.017 | ibrutinib 0.012 | [9] 0.02 | ralimetinib -0.004 | [10] -0.027 | [11] -0.046 | [12] -0.017 | [13] -0.021 | [14] -0.003 | [15] -0.01 | [16] 0.021

Quoted at random: 2 entries already listed.
HTATIP2 isoform 3 (UniProt Q9BUP3)
inactive: erlotinib 0.011 | [1] -0.017 | [2] -0.003 | [3] 0.031 | [4] 0.004 | [5] -0.009 | [6] -0.04 | [7] -0.051 | [8] -0.051 | IRAK-1-4 Inhibitor I -0.009 | ibrutinib -0.038 | [9] -0.004 | ralimetinib -0.008 | [10] 0.006 | [11] 0.001 | [12] 0.046 | [13] 0.026 | [14] -0.026 | [15] 0.034 | [16] -0.003

IFT74 (UniProt Q96LB3)
inactive: erlotinib 0.038 | [1] 0.026 | [2] 0.107 | [3] -0.067 | [4] -0.037 | [5] -0.014 | [6] -0.032 | [7] -0.013 | [8] 0.027 | IRAK-1-4 Inhibitor I 0.086 | ibrutinib 0.005 | [9] -0.028 | ralimetinib 0.052 | [10] -0.112 | [11] 0.056 | [12] -0.045 | [13] -0.035 | [14] 0.06 | [15] 0.036 | [16] -0.072

(listing goes on)

IMMP2L (UniProt Q96T52)
inactive: erlotinib 0.003 | [1] -0.138 | [2] -0.005 | [3] -0.049 | [4] 0.077 | [5] 0.092 | [6] 0.013 | [7] -0.03 | [8] -0.06 | IRAK-1-4 Inhibitor I 0.084 | ibrutinib -0.041 | [9] -0.01 | ralimetinib 0.035 | [10] -0.041 | [11] -0.026 | [12] -0.068 | [13] -0.062 | [14] -0.011 | [15] 0.126 | [16] 0.066

IFI30 (UniProt P13284)
inactive: erlotinib 0.039 | [1] -0.022 | [2] -0.039 | [3] -0.012 | [4] 0.046 | [5] 0.091 | [6] -0.113 | [7] 0.005 | [8] 0.018 | IRAK-1-4 Inhibitor I -0.005 | ibrutinib 0.01 | [9] -0.01 | ralimetinib -0.046 | [10] -0.051 | [11] -0.047 | [12] 0.007 | [13] 0.041 | [14] 0.009 | [15] -0.002 | [16] -0.059
